# Values of other authors, collected in patent US10406239B2, “Water-soluble docetaxel anticancer drug compound and preparation method and use thereof” (NANJING YOUYI MEDICAL TECHNOLOGY CO., LTD, priority 2015, dated 2019).
# Details: background statement; cited from earlier work
smiles,measurement,value
CC(=O)O[C@@]12CO[C@@H]1C[C@H](O)[C@@]1(C)C(=O)[C@H](O)C3=C(C)[C@@H](OC(=O)[C@H](O)[C@@H](NC(=O)OC(C)(C)C)c4ccccc4)C[C@@](O)([C@@H](OC(=O)c4ccccc4)[C@H]21)C3(C)C [Docetaxel],solubility in water (in words),insoluble in water
